These are yes or no findings as the source states them, for the method shown. Some binding calls cover weakened binding; strength is not graded here.
Molecular target: T1, human VEGF165 (human), P15692
T1 chain: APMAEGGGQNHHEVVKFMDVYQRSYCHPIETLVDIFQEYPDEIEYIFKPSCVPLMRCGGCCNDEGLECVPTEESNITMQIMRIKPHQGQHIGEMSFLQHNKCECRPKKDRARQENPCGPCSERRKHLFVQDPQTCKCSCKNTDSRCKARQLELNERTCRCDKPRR
Assay: immunoprecipitation and SDS-PAGE, transfected 293EBNA cells
Settings: remark: other sources report otherwise

binding: binds
B1: human VEGF165, P15692 27-191 (ligand, UniProt P15692-4 27-191, looked up)
chain: T1 chain
